The target in assay [1] is 53BP1, endogenous in mouse embryonic fibroblasts (mouse (endogenous in MEFs)) (UniProt P70399). In words: co-IP; endogenous proteins; IPs with anti-53BP1, anti-ACLY or control IgG from extracts of 53BP1+/+ or 53BP1-/- MEFs and of control or 53BP1-depleted HeLa cells; RIPA buffer, Protein G Sepharose, 4 °C overnight; western blot. In general terms: A western blot detects proteins with antibodies after separation by electrophoresis.

The target of assay [2] is T1, HA-53BP1-N (aa 1–699; N-terminal S/T-Q motif) (human), Q12888.
T1 chain: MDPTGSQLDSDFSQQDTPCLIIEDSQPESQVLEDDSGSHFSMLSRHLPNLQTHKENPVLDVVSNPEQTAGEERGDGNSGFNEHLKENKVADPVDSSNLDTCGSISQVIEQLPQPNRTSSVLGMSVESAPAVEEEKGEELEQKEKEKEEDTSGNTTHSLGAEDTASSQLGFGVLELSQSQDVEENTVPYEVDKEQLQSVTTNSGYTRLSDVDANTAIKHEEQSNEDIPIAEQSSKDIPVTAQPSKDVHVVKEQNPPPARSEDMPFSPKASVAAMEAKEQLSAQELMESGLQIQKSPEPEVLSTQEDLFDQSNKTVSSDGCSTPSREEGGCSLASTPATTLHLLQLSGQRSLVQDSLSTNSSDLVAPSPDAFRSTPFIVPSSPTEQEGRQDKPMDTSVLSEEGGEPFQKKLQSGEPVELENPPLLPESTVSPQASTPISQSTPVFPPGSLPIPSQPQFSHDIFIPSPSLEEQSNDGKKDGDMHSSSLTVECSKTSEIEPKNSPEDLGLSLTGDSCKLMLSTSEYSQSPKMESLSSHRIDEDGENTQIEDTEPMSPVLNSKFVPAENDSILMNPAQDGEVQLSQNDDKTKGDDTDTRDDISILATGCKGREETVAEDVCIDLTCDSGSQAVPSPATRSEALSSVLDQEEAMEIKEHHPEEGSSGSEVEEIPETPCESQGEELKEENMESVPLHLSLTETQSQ
The experiment in a line: co-IP; HA-tagged 53BP1 constructs and GFP-tagged ACLY constructs co-transfected in HEK293T cells; RIPA buffer, Protein G Sepharose, 4 °C overnight; western blot. As to conditions: remark: other sources report otherwise.

For assay [3], the target named is T2, GST-53BP1-N (GST-tagged N-terminus of 53BP1) (human), Q12888.
T2 chain: T1 chain
In words: pull-down; GST or GST-53BP1-N on Glutathione Sepharose 4B beads, 200 ng purified ACLY in 0.5 ml binding buffer (20 mM Tris-HCl pH 7.5, 150 mM NaCl, 0.5% NP40, 1 mM EDTA, 1 mM DTT, 10% glycerol), 4 °C, 90 min; washed with NTEN (300 mM NaCl); anti-ACLY western blot; both purified. As to conditions: remark: other sources report otherwise.

These are yes or no findings as the source states them, for the method shown. For part of these data: Binding seen in cells or lysates may run through a third protein. Some results given as binding are weak or reduced against the parent protein; the word gives no strength. For part of these data: Sequences can lack the tags named with a protein.

B1: ACLY, endogenous in mouse embryonic fibroblasts (enzyme, UniProt Q91V92 1-1091)
chain: MSAKAISEQTGKELLYKYICTTSAIQNRFKYARVTPDTDWAHLLQDHPWLLSQSLVVKPDQLIKRRGKLGLVGVNLSLDGVKSWLKPRLGHEATVGKAKGFLKNFLIEPFVPHSQAEEFYVCIYATREGDYVLFHHEGGVDVGDVDAKAQKLLVGVDEKLNTEDIKRHLLVHAPEDKKEVLASFISGLFNFYEDLYFTYLEINPLVVTKDGVYILDLAAKVDATADYICKVKWGDIEFPPPFGREAYPEEAYIADLDAKSGASLKLTLLNPKGRIWTMVAGGGASVVYSDTICDLGGVNELANYGEYSGAPSEQQTYDYAKTILSLMTREKHPEGKILIIGGSIANFTNVAATFKGIVRAIRDYQGPLKEHEVTIFVRRGGPNYQEGLRVMGEVGKTTGIPIHVFGTETHMTAIVGMALGHRPIPNQPPTAAHTANFLLNASGSTSTPAPSRTASFSESRADEVAPAKKAKPAMPQGKSATLFSRHTKAIVWGMQTRAVQGMLDFDYVCSRDEPSVAAMVYPFTGDHKQKFYWGHKEILIPVFKNMADAMKKHPEVDVLINFASLRSAYDSTMETMNYAQIRTIAIIAEGIPEALTRKLIKKADQKGVTIIGPATVGGIKPGCFKIGNTGGMLDNILASKLYRPGSVAYVSRSGGMSNELNNIISRTTDGVYEGVAIGGDRYPGSTFMDHVLRYQDTPGVKMIVVLGEIGGTEEYKICRGIKEGRLTKPVVCWCIGTCATMFSSEVQFGHAGACANQASETAVAKNQALKEAGVFVPRSFDELGEIIQSVYEDLVAKGAIVPAQEVPPPTVPMDYSWARELGLIRKPASFMTSICDERGQELIYAGMPITEVFKEEMGIGGVLGLLWFQRRLPKYSCQFIEMCLMVTADHGPAVSGAHNTIICARAGKDLVSSLTSGLLTIGDRFGGALDAAAKMFSKAFDSGIIPMEFVNKMKKEGKLIMGIGHRVKSINNPDMRVQILKDFVKQHFPATPLLDYALEVEKITTSKKPNLILNVDGFIGVAFVDMLRNCGSFTREEADEYVDIGALNGIFVLGRSMGFIGHYLDQKRLKQGLYRHPWDDISYVLPEHMSM
Turning to B1, the binding entry in assay [1] is listed as “binds”.

B2: GFP-ACLY (full length), P53396-1 1-1101 (enzyme)
chain: MSAKAISEQTGKELLYKFICTTSAIQNRFKYARVTPDTDWARLLQDHPWLLSQNLVVKPDQLIKRRGKLGLVGVNLTLDGVKSWLKPRLGQEATVGKATGFLKNFLIEPFVPHSQAEEFYVCIYATREGDYVLFHHEGGVDVGDVDAKAQKLLVGVDEKLNPEDIKKHLLVHAPEDKKEILASFISGLFNFYEDLYFTYLEINPLVVTKDGVYVLDLAAKVDATADYICKVKWGDIEFPPPFGREAYPEEAYIADLDAKSGASLKLTLLNPKGRIWTMVAGGGASVVYSDTICDLGGVNELANYGEYSGAPSEQQTYDYAKTILSLMTREKHPDGKILIIGGSIANFTNVAATFKGIVRAIRDYQGPLKEHEVTIFVRRGGPNYQEGLRVMGEVGKTTGIPIHVFGTETHMTAIVGMALGHRPIPNQPPTAAHTANFLLNASGSTSTPAPSRTASFSESRADEVAPAKKAKPAMPQDSVPSPRSLQGKSTTLFSRHTKAIVWGMQTRAVQGMLDFDYVCSRDEPSVAAMVYPFTGDHKQKFYWGHKEILIPVFKNMADAMRKHPEVDVLINFASLRSAYDSTMETMNYAQIRTIAIIAEGIPEALTRKLIKKADQKGVTIIGPATVGGIKPGCFKIGNTGGMLDNILASKLYRPGSVAYVSRSGGMSNELNNIISRTTDGVYEGVAIGGDRYPGSTFMDHVLRYQDTPGVKMIVVLGEIGGTEEYKICRGIKEGRLTKPIVCWCIGTCATMFSSEVQFGHAGACANQASETAVAKNQALKEAGVFVPRSFDELGEIIQSVYEDLVANGVIVPAQEVPPPTVPMDYSWARELGLIRKPASFMTSICDERGQELIYAGMPITEVFKEEMGIGGVLGLLWFQKRLPKYSCQFIEMCLMVTADHGPAVSGAHNTIICARAGKDLVSSLTSGLLTIGDRFGGALDAAAKMFSKAFDSGIIPMEFVNKMKKEGKLIMGIGHRVKSINNPDMRVQILKDYVRQHFPATPLLDYALEVEKITTSKKPNLILNVDGLIGVAFVDMLRNCGSFTREEADEYIDIGALNGIFVLGRSMGFIGHYLDQKRLKQGLYRHPWDDISYVLPEHMSM
Consider B2, for which, in assay [2], the binding entry is recorded as “binds”.

B3: recombinant ACLY protein (Sino Biological), P53396 1-1101 (enzyme)
chain: B2 chain
Turning to B3, in assay [3], the binding entry is recorded as “binds”.

Values taken from paper PMC8860602.
